Reference: the supplement of paper PMC3334620
The full ranking holds about 33,000 sequences; the median of “E-score (-0.5 to 0.5)” is about -8e-05, and the highest 2% start at about 0.23. The list shows a part of the results.

These sequences were tested against T1, Nrg2 (UniProt P38082) (assay: PBM E-score (8-mer binding enrichment) (E-score (-0.5 to 0.5)); higher = stronger / more preferred TF binding). Conditions: protein concentration: 100 nM; construct: GST-full length.
T1 sequence: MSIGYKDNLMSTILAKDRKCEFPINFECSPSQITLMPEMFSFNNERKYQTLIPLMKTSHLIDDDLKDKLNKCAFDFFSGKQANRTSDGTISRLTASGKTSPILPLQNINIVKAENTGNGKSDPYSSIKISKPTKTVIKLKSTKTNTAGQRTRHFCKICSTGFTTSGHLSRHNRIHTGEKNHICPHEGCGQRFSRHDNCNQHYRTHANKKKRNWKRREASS
Summary of the method: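 Full-length yeast transcription factors or their DNA-binding domains, GST-tagged and expressed with PURExpress, were applied at about 100-200 nM to universal all-10-mer Agilent arrays. These arrays had been made double-stranded by primer extension on fresh or once-stripped slides. Detection used fluorescent anti-GST, normalisation used masliner, and E-scores for ungapped eight-base words pooled with reverse complements came from the Universal PBM Analysis Suite.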

| Sequence | PBM E-score |
| --- | --- |
| CGCACTGA | -0.0198 |
| ACAGGACA | 0.153 |
| GCTAAGGA | -0.225 |
| ACCCGCCG | 0.201 |
| CGACAGCG | -0.169 |
| TACGAATA | 0.134 |
| AGGCATTG | -0.113 |
| ACACCCAA | 0.024 |
| AGTATCGA | 0.174 |
| GGACACTA | 0.00752 |
| CGAGTTAG | 0.0595 |
| GACAGGGA | 0.252 |
| AAAGCGTT | -0.116 |
| CCCGTAGG | -0.203 |
| CTACACAA | 0.124 |
| GGCACCCA | -0.163 |
| CCTCCATA | -0.224 |
| ATAGCCGG | -0.145 |
| CCTAACTA | 0.0797 |
| CGCTCCCA | -0.177 |
| ACATTCTG | -0.0901 |
| CAAGAGTC | -0.198 |
| CCCAGATC | -0.253 |
| GTTTGTAA | -0.0294 |
| CAGACAAA | 0.0463 |

| Sequence | PBM E-score |
| --- | --- |
| CACTGGGG | -0.168 |
| ATGGAAAC | -0.0525 |
| GCATAACC | -0.0951 |
| ATACCCGG | -0.154 |
| CCTGCAGA | 0.143 |
| GCGTCGTA | 0.0775 |
| CACAATGC | 0.0273 |
| AACCGCCC | 0.00914 |
| ATGAATCG | 0.163 |
| GAAAGCAC | 0.116 |
| GATTACGA | 0.134 |
| AGCGGGAC | -0.101 |
| ACACTTAG | 0.0337 |
| GCAGTGGA | 0.0909 |
| GACTGCCC | -0.152 |
| GATGGAGC | -0.166 |
| AAGGCTAA | -0.0162 |
| AGTTCTTC | -0.029 |
| ATCTTTTG | 0.00477 |
| ACTACACG | 0.0796 |
| GCGCTTTA | 0.213 |
| CCTTTCGA | 0.115 |
| CGCTTCAA | -0.029 |
| CACGGCTA | -0.174 |
| ACTAGCTA | 0.0559 |

Shown as labelled records: entries from further up
ACCCGCCG
  PBM E-score: 0.201
AAAGCGTT
  PBM E-score: -0.116
CAGACAAA
  PBM E-score: 0.0463
ATACCCGG
  PBM E-score: -0.154

Next entries.

| Sequence | PBM E-score |
| --- | --- |
| AGGGCTAA | -0.0406 |
| ACGAGAGC | 0.0267 |
| GCGAGATA | 0.171 |
| AACTATCG | 0.0118 |
| CTATGACC | -0.129 |
| TCGGACCA | 0.124 |
| GACTAGGA | -0.0424 |
| CGATCAAG | -0.0142 |
| AGTTACTA | 0.0184 |
| GAGCAACA | -0.0268 |
| CTGGCCTA | -0.0943 |
| GCGATAAA | 0.204 |
| CGGCGAGC | 0.116 |
| ACTGGGAG | -0.109 |
| AGAGCCCT | -0.0853 |
| TGACGGAA | -0.00402 |
| CCTGCAAG | -0.0363 |
| CGAAGACA | -0.00934 |
| AGGCACTG | -0.0512 |
| CCACTGGC | 0.0694 |
| GCAAATTA | 0.155 |
| AACGCGCT | 0.123 |
| ATGGCCCG | -0.14 |
| AAGGCTCA | -0.107 |
| AAGTTGCC | 0.00393 |

A portion taken from the entries so far, for reference:

| Sequence | PBM E-score |
| --- | --- |
| TCGGACCA | 0.124 |
| GACTAGGA | -0.0424 |
| CGATCAAG | -0.0142 |
| AGTTACTA | 0.0184 |
| GAGCAACA | -0.0268 |

(listing goes on)

| Sequence | PBM E-score |
| --- | --- |
| GCTGACAC | -0.0636 |
| ACATCATG | 0.0246 |
| TACTCTAA | 0.0771 |
| CATTCGTA | -0.0996 |
| AGGGGTCA | 0.128 |
| CAGGCGAA | 0.0764 |
| AGCGGGGG | -0.295 |
| AATAGTAA | 0.221 |
| AGAAAACG | 0.155 |
| GGACTCCA | -0.235 |
| CCCCATGA | 0.154 |
| CCATCAAG | -0.15 |
| ACCATCCA | -0.158 |
| CACGTATA | 0.0382 |
| ACGTCTAT | -0.136 |
| CGTCCGGA | -0.123 |
| CCTGGGCA | -0.261 |
| ATTAAGCG | 0.123 |
| AGCTATGA | -0.0745 |
| AAATCTGA | 0.139 |
| CATCGGAC | -0.00858 |
| GCGGTGAA | 0.0607 |
| TAACCTCA | -0.0636 |
| AGCGTTCA | -0.185 |
| GGCAAACC | -0.196 |

Single entries from the list:
AAATCTGA | PBM E-score: 0.139
CCCCATGA | PBM E-score: 0.154

Further records:

| Sequence | PBM E-score |
| --- | --- |
| CATACCTC | -0.0407 |
| ACTCATCC | 0.0985 |
| AAACAGCC | -0.0282 |
| ATGATTGG | 0.00137 |
| GCTACGAA | 0.139 |
| ACCTCTCT | -0.161 |
| ATCAGGCA | 0.00611 |
| GCATGTAA | -0.0072 |
| AGCCTGAC | -0.116 |
| AAAGTGAT | 0.0508 |
| TAGATCAA | 0.0306 |
| CACATTAA | 0.00494 |
| CAATCTGG | 0.0452 |
| GATACCCA | 0.0646 |
| AACGCTCC | -0.146 |
| GACCCACC | 0.0431 |
| ACTAAAGC | 0.00801 |
| GCACGATA | 0.113 |
| AAAGCGTA | -0.104 |
| AATTTCGT | 0.0935 |
| AGATAAAA | 0.145 |
| AGGAACTC | 0.00194 |
| GACACATA | 0.0156 |
| AGTAACGA | 0.00247 |
| AACGCAGC | 0.253 |

| Sequence | PBM E-score |
| --- | --- |
| AAGGTAGT | 0.0492 |
| AAGCGACA | 0.161 |
| CGCTTGAG | -0.0135 |
| CACTCACA | 0.0997 |
| AGGTCCAT | 0.137 |
| TCGCTAAA | -0.134 |
| ACTGTTCA | -0.0219 |
| CGATATCA | 0.1 |
| GCCGGTGA | -0.0361 |
| AATCGCCG | -0.0476 |
| CACCGTCC | -0.0798 |
| CCGACACA | 0.0282 |
| ATTATATA | 0.113 |
| AGGCCGCA | -0.0941 |
| CTGCACAG | -0.0527 |
| CGGACTAA | 0.0515 |
| AGTTTTGC | -0.0161 |
| AGGGATGG | 0.096 |
| TAGCTAAA | -0.119 |
| GGGAAGAC | -0.199 |
| ACGACGCA | 0.132 |
| AATCCCCA | 0.124 |
| CACACCAG | -0.105 |
| CTTCGGGC | -0.122 |
| GGTACTAC | 0.074 |

| Sequence | PBM E-score |
| --- | --- |
| GCGAAGCA | -0.0741 |
| AGTGGCAT | 0.0255 |
| CCACTAAG | 0.0758 |
| CGCAGTTC | -0.102 |
| AGTAGCCC | -0.0684 |
| GGAGGACC | 0.038 |
| TATTGGGA | 0.0355 |
| AGATTTTA | -0.13 |
| AGACTCAG | -0.0651 |
| AGGACTGC | -0.277 |
| CCCGATTA | 0.135 |
| CACCGATG | -0.132 |
| GAATTCAC | 0.0508 |
| GTATCCAA | -0.00691 |
| TCCAATCA | -0.0087 |
| CTCGTTGA | -0.0627 |
| AAATTAGA | 0.179 |
| CCATGTGA | -0.103 |
| CACCGGAA | 0.105 |
| GAAAGTCC | -0.0312 |
| ATTGACAG | -0.0166 |
| ACCTTTGA | -0.121 |
